Measured values published in patent US10240124B2, “Cell culture substrate comprising a laminin and a cadherin” (BioLamina AB, priority 2011, dated 2019).
For at least one compound, name, drawing or mass did not settle the structure.

System: hES cells on LN-521
Assay: Inhibition of survival assay on LN-521
Format: cell-based, human
Conditions: medium contained bFGF, FIG. 16
Source text: InSolution™ LY 294002 (a specific Akt inhibitor), InSolution™ Wortmannin (a specific PI3K inhibitor), and InSolution™ 98059 (a specific MEK1/Erk inhibitor) were purchased from Calbiochem. Antibodies to phospho-Akt (#4060), total-Akt (#9272), phospho-Erk (#9101), and total-Erk (#9102) were obtained from Cell Signaling Technology. PathScan Phospho-Akt1 sandwich ELISA kit (#7160), PathScan total Akt1 sandwich ELISA kit (#7170), PathScan Phospho-Akt2 sandwich ELISA kit (#7048), and PathScan total Akt2 sandwich ELISA kit (#7046) were also purchased from Cell Signaling Technology. Antibodies to Calnexin (#ab10286) were obtained from Abcam. Function blocking antibodies to various integrin subunits, mouse isotype antibodies, and α-dystroglycan were purchased from Millipore. Since function blocking antibodies to αV (MAB1980) and α6 (MAB1378) were presented in a solution with sodium azide, before the inhibition of survival experiment all the antibodies to alpha integrin subunits were dialyzed thrice against O3 medium for 2 hours each time. Antibodies to Lutheran receptor and α-fetoprotein, as well as rat isotype control antibodies were obtained from R&D Systems. Antibodies to Oct4, Nanog, SSEA-4, smooth muscle actin and MAP-2 were purchased from Millipore. […]

COC[C@H]1OC(=O)c2coc3c2[C@@]1(C)C1=C(C3=O)[C@@H]2CCC(=O)[C@@]2(C)C[C@H]1OC(C)=O [Wortmannin]
hES cell survival 24 hours after plating on LN-521 with pathway inhibitor: failed to survive
